Experimental data as given in US20260091080A1.
No constants are given. Whether binding was seen depends on the method and setting. For some of these results: In cells and extracts the contact can be indirect. Some results given as binding are weak or reduced against the parent protein; the word gives no strength. For some of these results: Tags and fused reporters may be left off the sequences shown.

Legend:
[1] = molecular target: carboxyl-terminal part of human TDP-43 (amino acids 259-415), bait in pBT vector (human) (UniProt Q13148); experiment: bacterial two-hybrid screen (BacterioMatch II), TDP-43 259-415 as bait, human brain cDNA library
[2] = molecular target: TDP-43 wild type (non-mutant), C-terminal V5 tag (pcDNA3.1/V5) (human) (UniProt Q13148); experiment: co-immunoprecipitation (data not shown)
[3] = molecular target: TDP-43-ΔNES (NES-deleted variant of TDP-43), C-terminal V5 tag (human) (UniProt Q13148); experiment: co-immunoprecipitation (data not shown)
[4] = molecular target: TDP-43-A315T, C-terminal V5 tag (human) (UniProt Q13148); experiment: co-immunoprecipitation (data not shown)
[5] = molecular target: TDP-43-ΔNES (NES-deleted variant of TDP-43), C-terminal V5 tag (human) (UniProt Q13148); experiment: co-immunoprecipitation after co-expression (n=3)
[6] = molecular target: TDP-43-ΔNES (NES-deleted variant of TDP-43), C-terminal V5 tag (human) (UniProt Q13148); experiment: co-immunoprecipitation from co-transfected 293T HEK cells
[7] = molecular target: TDP-43-A315T, C-terminal V5 tag (human) (UniProt Q13148); experiment: as above

Measured: binding

B1: 14-3-3θ (encoded by the YWHAQ gene), clone from human brain cDNA pTRG plasmid library (protein)
chain: MEKTELIQKAKLAEQAERYDDMATCMKAVTEQGAELSNEERNLLSVAYKNVVGGRRSAWRVISSIEQKTDTSDKKLQLIKDYREKVESELRSICTTVLELLDKYLIANATNPESKVFYLKMKGDYFRYLAEVACGDDRKQTIDNSQGAYQEAFDISKKEMQPTHPIRLGLALNFSVFYYEILNNPELACTLAKTAFDEAIAELDTLNEDSYKDSTLIMQLLRDNLTLWTSDSAGEECDAAEGAEN
binds: [1]

B2: 14-3-3θ, C-terminal myc tag (pcDNA3.1/myc) (protein, not shown: small tags and cut ends)
chain: B1 chain
binds: [2] | [3] | [4] | [5] | [6] | [7]

B3: 14-3-3γ, C-terminal myc tag (protein, UniProt P61981 1-247, looked up, not shown: small tags and cut ends)
chain: MVDREQLVQKARLAEQAERYDDMAAAMKNVTELNEPLSNEERNLLSVAYKNVVGARRSSWRVISSIEQKTSADGNEKKIEMVRAYREKIEKELEAVCQDVLSLLDNYLIKNCSETQYESKVFYLKMKGDYYRYLAEVATGEKRATVVESSEKAYSEAHEISKEHMQPTHPIRLGLALNYSVFYYEIQNAPEQACHLAKTAFDDAIAELDTLNEDSYKDSTLIMQLLRDNLTLWTSDQQDDDGGEGNN
binds: [2] | [3] | [4]

B4: 14-3-3η, C-terminal myc tag (protein, UniProt Q04917 1-246, looked up, not shown: small tags and cut ends)
chain: MGDREQLLQRARLAEQAERYDDMASAMKAVTELNEPLSNEDRNLLSVAYKNVVGARRSSWRVISSIEQKTMADGNEKKLEKVKAYREKIEKELETVCNDVLSLLDKFLIKNCNDFQYESKVFYLKMKGDYYRYLAEVASGEKKNSVVEASEAAYKEAFEISKEQMQPTHPIRLGLALNFSVFYYEIQNAPEQACLLAKQAFDDAIAELDTLNEDSYKDSTLIMQLLRDNLTLWTSDQQDEEAGEGN
binds: [2] | [3] | [4]
